SMILES strings stand for the structures. Among all 210,000 compounds or so, about 5,900 (2.8%) were called active. Inconclusive results (about 5%) are left out. Calls come from the whole dose curve; as a rule, active = well fitted activation curve with a large enough effect; inconclusive = small, poorly fitted or top-dose-only effect; inactive = no such curve, though single readings can be large or run the other way. The entries are a selection whose mix differs from that of the whole data set. Where no call is shown, the source filed none.
Potency is the fitted concentration of half-maximal effect.

The assay can be described thus: qHTS Assay for Enhancers of SMN2 Splice Variant Expression. For activity change, positive = activation: % of control where 0% means no effect. Note: nearly all actives have a fitted effect of over 55% in size. Conditions: HEK293 SMN2-luciferase splicing reporter, luminescence, 30-36 h; activity change, positive = activation: at 46.1 µM (top of the series) unless noted. The text has this: NIH Chemical Genomics Center [NCGC] NIH Molecular Libraries Probe Production centers Network [MLPCN] MLPCN Grant: R03 MH084179-01 Assay Submitter (PI): Elliot Androphy NCGC Assay Overview: Spinal muscular atrophy (SMA) is caused by insufficient levels of the survival motor neuron protein SMN. The SMN locus on chromosome 5q13 contains two inverted copies of SMN called SMN1 and SMN2 which are 99% identical at the amino acid level. SMN1 is a fully functional protein and SMN2 skips exon 7 90% of the time. Skipping of exon 7 produces non-functional protein product. 10% of the SMN2 protein includes exon 7 and is fully functional. In the SMA disease state, mutations in the SMN1 locus are the cause of the disease state. Because only 10% of SMN2 is of the fully functional form, it is not sufficient to overcome the deficiency produced by the loss of the SMN1 product. A therapy that either increase the amount of SMN2 product made or to increase the inclusion of exon 7 has been proposed for the treatment of SMA. We have designed an assay to identify small molecules that can increase the amount of functional SMN2 product by appending a luciferase reporter gene after the native SMN2 gene, such that inclusion of exon 7 in the expressed product places the luciferase sequence in frame, thus generating functional luciferase enzyme.
NCGC Assay Protocol Summary: This screen utilizes a luciferase reporter gene assay, combining the promoter and splicing based cassettes in tandem with the major portion of the native SMN2 cDNA, and then transfected into HEK293 cells. Compounds that increase luciferase signal presumably enhance expression of the functional SMN2 splice variant. Passaging media contained DMEM w/ glutamax (+phenol red) 10% FCS, 1x pen/strep, 200 ug/ml hygro, 1x sodium pyruvate. Assay media contained DMEM w/ glutamax (-phenol red) 10% FCS, 1x pen strep, 1x pyruvate Sequence, Parameter, Value, Description (1) Cells, […], 2000 cells/well, 1536 TC treated White solid bottom plate (2) Time, 10-12 hours, 37C 5% CO2 (3) Compound, 23 nl, MLSMR Library (4) Control Compound, 23 nL, Sodium butyrate st 4.5mM (final) conc (5) Time, 30-36 hours, 37C 5% CO2 (6) Reagent, 3 ul, One Glo (TM) from Promega (7) Time, 5-15 minutes, Room temp (8) Detector, Viewlux: luminescent read, 60 second integration, high speed 2x binning Keywords: Spinal muscular atrophy, SMA, SMN2, high throughput screening, MLSMR, MLPCN, NIH Roadmap, qHTS and NCGC
As for `O=C(CSc1ccc(-c2ccccc2)nn1)c1cccs1`, the Potency is active: 17.8 µM.

On to `O=C1CCCc2c1nc(-c1ccccc1)n2O`, for which the activity change, positive = activation was determined as 24%.

Take `NC(=O)c1c(NC(=O)C2CCCO2)sc2c1CCCC2` (stereo not given): the activity change, positive = activation was 35.4%.

For the compound `Cc1ccc(S(=O)(=O)Nc2ccccc2-c2ccccc2NS(=O)(=O)c2ccc(C)cc2)cc1`, the activity change, positive = activation is -52.5%.

Consider `CCCCOC(=O)n1c(SCC(=O)N(CC)CC)nc2ccccc21`, for which the activity change, positive = activation came out at 32.4%.

Take `COc1ccc(NC(=O)COc2ccc(/C=N/O)cc2OC)cc1`: the activity change, positive = activation worked out at 186%.

Consider `COc1ccc(S(=O)(=O)NCc2ccccc2Cl)cc1OC`, for which the activity change, positive = activation is 32.3%.

As for `O=C(CN1CCC(NC(=O)Cc2ccccc2)CC1)Nc1ccccc1Br`, the activity change, positive = activation is -46.9%.

Regarding `COc1ccc(-c2nn(-c3ccccc3)cc2/C=N/Nc2ccc3ccccc3n2)cc1OC`, the “activity change, positive = activation” value was inactive: -65.9%.

With `c1cncc(-c2nc(-c3ccc4c(c3)OCO4)cs2)c1`, the activity change, positive = activation is 104%.

As for `COc1ccccc1NC(=O)CSc1ccc(-c2cccs2)nn1`, the “activity change, positive = activation” value is inactive: -38.3%.

Take `CCn1cc(C(=O)NC2CCC(C)CC2)c(=O)c2cc(S(=O)(=O)N3CCCCC3)ccc21` (stereo not given): the Potency was active: 12.6 µM.

For the compound `COc1ccc2nc(SCc3ccccc3C)nc(C)c2c1`, the Potency was active: 22.4 µM.

As to `COC(=O)c1c(NC(=O)CN2CCN(c3cccc(Cl)c3)CC2)sc(C)c1C`, the “activity change, positive = activation” value was inactive: -27.4%.

Turning to `O=C(Nn1c(SCc2ccc(F)cc2)nc2ccsc2c1=O)c1ccccc1`, the activity change, positive = activation was found to be 49.4%.

Turning to `COC(=O)c1cccc(NS(=O)(=O)c2ccc(NC(C)=O)cc2)c1C`, the “activity change, positive = activation” value is inactive: -32.9%.

On to `Cc1ccc(NS(=O)(=O)c2ccc3c(c2)c(=O)n(C)c(=O)n3C)cc1F`, for which the “activity change, positive = activation” value is inactive: -45.1%.

Turning to `COCCOC(=O)C1=C(C)N=C2SCCC(=O)N2C1c1cccc(Br)c1` (stereo not given), the activity change, positive = activation was 36.2%.

For `COc1ccccc1/C=C(/C(=O)OCC(=O)Nc1ccccc1C)c1ccccc1`, the activity change, positive = activation was -64.3%.

For the compound `O=C(NCCOc1ccccc1F)c1cc(F)c(F)cc1Cl`, the Potency was active: 2 µM.

Take `O=C(COc1cc(Cl)c(Cl)cc1Cl)Nn1cnnc1`: the activity change, positive = activation was 43.7%.

As to `CCOC(=O)N/N=C\c1ccc([N+](=O)[O-])s1`, the “activity change, positive = activation” value was inactive: -33.4%.

`Cc1cc(C)nc(SC2CCCCC2O)n1` (stereo not given): the activity change, positive = activation was 44.4%.

In the case of `Cn1c(/C=C/c2ccc([N+](=O)[O-])o2)nc2ccccc2c1=O`, the activity change, positive = activation is -102%.

Regarding `Oc1ccc(Br)cc1-c1cc(-c2ccco2)[nH]n1`, the activity change, positive = activation was found to be 34.3%.

Take `CCOc1ccc(Nc2nc3cc(S(=O)(=O)N(CC)CC)ccc3o2)cc1`: the activity change, positive = activation was 20.1%.

For `COc1ccc(O)c(/C=N/NC(=S)Nc2cccc(S(=O)(=O)N(C)C)c2)c1`, the “activity change, positive = activation” value was inactive: -58.9%.

For the compound `Cc1c(C(=O)NCCC2=CCCCC2)oc2ccc(S(=O)(=O)N3CCOCC3)cc12`, the “activity change, positive = activation” value is inactive: -40.4%.

`CCCSc1ccc2nc(-c3ccccc3)cn2c1`: the activity change, positive = activation was -84.1%.

Turning to `O=C(C1Cc2ccccc2CN1S(=O)(=O)c1cccs1)N1CCCCC1` (stereo not given), the activity change, positive = activation is 34.8%.

Take `CCOCCn1c(C(C)C)nc2ccccc21`: the activity change, positive = activation amounted to 22.4%.

For the compound `COc1ccc(Oc2nc(SC)nc3ccccc23)cc1`, the “activity change, positive = activation” value is inactive: -84.5%.

Take `O=c1c2c(nc3cc(-c4ccc(F)cc4)[nH]n13)CCC2`: the Potency is active: 7.08 µM.

In the case of `CCC(C)C(NC(=O)c1ccc(Cl)cc1)C(=O)O` (stereo not given), the activity change, positive = activation is 32.1%.

As for `Cc1cc(-c2csc(N)n2)c(C)n1C`, the “activity change, positive = activation” value was inactive: -33.3%.

In the case of `COc1ccc(N2CCN(c3ccc(N4C(=O)COCC4=O)cc3[N+](=O)[O-])CC2)cc1`, the activity change, positive = activation was -43.9%.

In the case of `CC(C)C(NS(=O)(=O)c1cccs1)C(=O)N(C)Cc1ccccc1` (stereo not given), the activity change, positive = activation was 38.5%.

On to `CN(C)c1ccnc2sc(C(=O)c3ccc(Br)cc3)c(N)c12`, for which the Potency was active: 22.4 µM.

In the case of `CCCCNc1ncnc2c1cnn2-c1ccc(Cl)cc1`, the Potency is active: 5.01 µM.

Take `CCOC(=O)C1CCCN(C(=O)COc2ccccc2O)C1` (stereo not given): the activity change, positive = activation was -48.4%.

With `COc1ccc(CN2C(=S)NC(C)(C)CC2(C)O)cc1` (stereo not given), the activity change, positive = activation was -1.4%.

`Cc1ccc2nc(-c3ccc(NC(=O)CN(c4ccccc4C)S(C)(=O)=O)cc3)sc2c1`: the Potency is active: 11.2 µM.

For the compound `Cc1nc(NC(=O)C2CC3CCCC(C2)C3=O)sc1C` (stereo not given), the activity change, positive = activation is 69.2%.

Consider `Cc1cccc(C(C)C)c1NC(=O)c1ccc(COc2ccc3c(C)cc(=O)oc3c2)cc1`, for which the activity change, positive = activation was -29.5%.

With `O=C(CCCC(=O)OCC1CCCO1)OCC1CCCO1` (stereo not given), the activity change, positive = activation came to 31.8%.

Consider `O=C1Nc2ccccc2C(O)(C(=O)NCc2ccco2)N1c1ccccc1` (stereo not given), for which the activity change, positive = activation amounted to 44.2%.

Turning to `O=C(C1CCN(S(=O)(=O)c2cccc3cccnc23)CC1)N1CCn2c1nc1ccccc12`, the “activity change, positive = activation” value was inactive: -32%.

In the case of `c1ccc(-c2nnc3sc(-c4ccncc4)nn23)cc1`, the Potency is active: 4.47 µM.

With `O=C(COC(=O)c1ccccc1[N+](=O)[O-])c1ccc(C2CCCCC2)cc1`, the “activity change, positive = activation” value is inactive: -55.7%.

Consider `C=CCNc1ncnc2c1[nH]c1ccc(Cl)cc12`, for which the “activity change, positive = activation” value is inactive: -79.5%.

With `CC(=O)c1cnc(-c2ccccc2)s1`, the activity change, positive = activation is 76.6%.

Turning to `CCn1c(=O)c2cc(S(=O)(=O)NCc3ccccc3)ccc2n(CC)c1=O`, the activity change, positive = activation stood at 40.6%.

For the compound `CCc1ccc(C(N)=S)cc1`, the “activity change, positive = activation” value was inactive: 12.7%.

Consider `COc1ccc(NC(=S)N(CCCN2CCC(C)CC2)Cc2cccs2)cc1`, for which the activity change, positive = activation was -50%.

With `CN(/N=C/c1cccnc1)c1cnn(-c2ccc(F)c(Cl)c2)c(=O)c1Cl`, the activity change, positive = activation was found to be 50.4%.
